Source: PubChem BioAssay AID330 (DTP/NCI, 2004)
The list does not hold the whole screen: it gathers tests that were run many times, whatever their T/C, doses with no T/C, and many T/C values between a quarter and a half above the control. Other doses and runs of a compound stand elsewhere. T/C: endpoint of the treated group in % of that of the vehicle group. Some doses have a count of surviving animals in place of a T/C: the source holds a T/C of zero for them, seemingly a mark for toxic or unscored doses. Some doses without a T/C left all or most animals alive at the check, yet need not have been tolerated: survival well below the control is almost never listed, so the zero probably covers shortened survival too. Counts of survivors are from the toxicity check (mostly the fifth day) where no day follows; animals may have died later. Schedule codes are those of the source, taken here to give the interval after Q, in days (D) or hours (H), and the number of doses after X. Marks such as (2×) stand for listed records that agree. Some doses were run more than once; their values stand side by side, smallest first. Where survival is the endpoint, the PubChem record calls one and a half times the control and up active, and a quarter to a half above the control has no call in these data; cut-offs in other NCI protocols can differ. Some T/C values are followed by the survivors on the day toxicity was checked, most often the fifth; without a count, all were alive then.

Test system: P388 leukemia ip, CD2F1 mice, survival T/C
Experiment: NCI In Vivo Anticancer Drug Screen. Data for tumor model P388 Leukemia (intraperitoneal) in CD2F1 (CDF1) mice
Conditions: T/C endpoint: median survival time, higher T/C = longer survival
[1] = dose: 240.0 mg/kg/injection, schedule: Q01DX005 (ip), vehicle: Klucel (hydroxypropylcellulose) (HPC)
[2] = dose: 200.0 mg/kg/injection, schedule: Q01DX009 (ip), vehicle: saline with Tween-80
[3] = dose: 200.0 mg/kg/injection, schedule: Q01DX009 (ip), vehicle: saline
[4] = dose: 200.0 mg/kg/injection, schedule: Q01DX005 (ip), vehicle: saline
[5] = dose: 200.0 mg/kg/injection, schedule: Q01DX005 (ip), vehicle: Klucel (hydroxypropylcellulose) (HPC)
[6] = dose: 50.0 mg/kg/injection, schedule: Q01DX005 (ip), vehicle: saline with Tween-80
[7] = dose: 200.0 mg/kg/injection, schedule: Q01DX005 (ip), vehicle: saline with Tween-80
[8] = dose: 200.0 mg/kg/injection, schedule: Q01DX009 (ip), vehicle: water
[9] = dose: 200.0 mg/kg/injection, schedule: Q01DX009 (ip), vehicle: Klucel (hydroxypropylcellulose) (HPC)
[10] = dose: 1.56 mg/kg/injection, schedule: Q01DX009 (ip), vehicle: saline
[11] = dose: 3.12 mg/kg/injection, schedule: Q01DX009 (ip), vehicle: saline
[12] = dose: 6.25 mg/kg/injection, schedule: Q01DX009 (ip), vehicle: saline
[13] = dose: 12.5 mg/kg/injection, schedule: Q01DX009 (ip), vehicle: saline
[14] = dose: 100.0 mg/kg/injection, schedule: Q01DX009 (ip), vehicle: saline
[15] = dose: 12.5 mg/kg/injection, schedule: Q01DX005 (ip), vehicle: saline with Tween-80
[16] = dose: 50.0 mg/kg/injection, schedule: Q04DX003 (ip), vehicle: water

Compound: c1ccc(-c2cnc3cccnc3n2)cc1
- survivor count [1]: 3 of 6

Compound: COS(=O)(=O)OC1(SC)C=C(c2ccccc2)SS1 (stereo unspecified)
- survivor count (dose: 100.0 mg/kg/injection, schedule: Q01DX001 (ip), vehicle: saline): 2 of 6

Compound: CN(C)c1ccc(/C=C/c2ccccn2)cc1
- survivor count (dose: 50.0 mg/kg/injection, schedule: Q01DX009 (ip), vehicle: saline with Tween-80): 6 of 6
- survivor count (dose: 100.0 mg/kg/injection, schedule: Q01DX009 (ip), vehicle: saline with Tween-80): 0 of 6
- survivor count [2]: 0 of 6

Compound: CC1(C)N=C(N)N=C(N)N1c1ccc(OCC(=O)Nc2ccc(S(=O)(=O)F)cc2)c(Cl)c1
- survivor count (dose: 400.0 mg/kg/injection, schedule: Q04DX003 (ip), vehicle: saline): 6 of 6

Compound: CCOC(=O)c1ccc(NC(=O)CSc2nc3ccccc3o2)cc1
- survivor count [3]: 0 of 6

Compound: NC1C([O-])OC(CO)C(O)C1O.O=C1OC(C(O)CO)C([O-])=C1[OH2+].[Cu+2] (stereo unspecified)
- survivor count (dose: 25.0 mg/kg/injection, schedule: Q01DX005 (ip), vehicle: saline): 0 of 6
- survivor count (dose: 50.0 mg/kg/injection, schedule: Q01DX005 (ip), vehicle: saline): 2 of 6
- survivor count (dose: 100.0 mg/kg/injection, schedule: Q01DX005 (ip), vehicle: saline): 0 of 6
- survivor count [4]: 0 of 6

Compound: C=C=CN1C(C)=CC(=C2C(=O)c3ccccc3C2=O)C=C1C
- T/C [5]: 127 % of control
- survivor count [1]: 1 of 6

Compound: CCOP(=S)(OCC)Oc1cc(C)nc(C(C)C)n1
- survivor count [2]: 6 of 6

Compound: Brc1cn2[n+](c1)[B-]n1cc(Br)c[n+]1[B-]2
- survivor count (dose: 120.0 mg/kg/injection, schedule: Q01DX005 (ip), vehicle: saline with Tween-80): 6 of 6
- survivor count (dose: 240.0 mg/kg/injection, schedule: Q01DX005 (ip), vehicle: saline with Tween-80): 0 of 6

Compound: O=C1CC(=O)N(CCc2ccncc2)C(=O)N1CCc1ccncc1
- survivor count [4]: 3 of 5

Compound: O=C1CCCN1CC#CCN1CCCC1
- survivor count (dose: 6.25 mg/kg/injection, schedule: Q01DX005 (ip), vehicle: Klucel (hydroxypropylcellulose) (HPC)): 0 of 6
- survivor count (dose: 12.5 mg/kg/injection, schedule: Q01DX005 (ip), vehicle: Klucel (hydroxypropylcellulose) (HPC)): 0 of 6
- survivor count (dose: 25.0 mg/kg/injection, schedule: Q01DX005 (ip), vehicle: Klucel (hydroxypropylcellulose) (HPC)): 0 of 6
- survivor count [6]: 0 of 6
- survivor count (dose: 100.0 mg/kg/injection, schedule: Q01DX005 (ip), vehicle: saline with Tween-80): 0 of 6
- survivor count [7]: 0 of 6

Compound: CC1CCC2(C)CCC3(C)C4=CCC5C(C)(C)C(O)CCC5(C)C4CCC3(C)C2C1C (stereo unspecified)
- survivor count (dose: 100.0 mg/kg/injection, schedule: Q04DX003 (ip), vehicle: other): 6 of 6

Compound: Cc1c2cc[n+](CCO)cc2c(C)c2c1[nH]c1ccc(O)cc12
- T/C (dose: 6.25 mg/kg/injection, schedule: Q04DX003 (ip), vehicle: saline): 145 % of control
- survivor count (dose: 12.5 mg/kg/injection, schedule: Q04DX003 (ip), vehicle: saline): 5 of 6
- survivor count (dose: 25.0 mg/kg/injection, schedule: Q04DX003 (ip), vehicle: saline): 2 of 6
- survivor count (dose: 50.0 mg/kg/injection, schedule: Q04DX003 (ip), vehicle: saline): 6 of 6
- survivor count (dose: 100.0 mg/kg/injection, schedule: Q04DX003 (ip), vehicle: saline): 6 of 6
- survivor count (dose: 200.0 mg/kg/injection, schedule: Q04DX003 (ip), vehicle: saline): 0 of 6

Compound: C1=C(c2ccccc2)C(c2ccc(OCCN3CCCCC3)cc2)Oc2ccccc21 (stereo unspecified)
- survivor count [7]: 6 of 6

Compound: COCN(CCc1ccccc1)CCN(C)C
- survivor count [3]: 2 of 6

Compound: COC1=C2CCC3c4cc(OC)c(OC)cc4CC[N+]3=C2CC1 (stereo unspecified)
- survivor count [5]: 2 of 6

Compound: COc1cc2c(cc1OC)CN1CSc3cc(OC)c(OC)cc3C1C2 (stereo unspecified)
- survivor count (dose: 400.0 mg/kg/injection, schedule: Q01DX001 (ip), vehicle: saline with Tween-80): 6 of 6

Compound: O=C1C(Cl)=C(Cl)C(Cl)(Cl)C(Cl)=C1Cl
- survivor count (dose: 100.0 mg/kg/injection, schedule: Q01DX001 (ip), vehicle: Klucel (hydroxypropylcellulose) (HPC)): 3 of 6
- survivor count (dose: 200.0 mg/kg/injection, schedule: Q01DX001 (ip), vehicle: Klucel (hydroxypropylcellulose) (HPC)): 0 of 6
- survivor count (dose: 400.0 mg/kg/injection, schedule: Q01DX001 (ip), vehicle: Klucel (hydroxypropylcellulose) (HPC)): 0 of 6

Compound: O=S(=O)(NC(=S)S)c1ccccc1
- T/C [8]: 128 and 135 % of control [5 of 6 alive]
- survivor count [8]: 2 of 6
- survivor count (dose: 400.0 mg/kg/injection, schedule: Q01DX009 (ip), vehicle: water): 0 of 6 and 1 of 6

Compound: CC1=CC=C(C(=O)C(Br)C(Br)c2ccccc2)C1 (stereo unspecified)
- survivor count (dose: 50.0 mg/kg/injection, schedule: Q01DX009 (ip), vehicle: Klucel (hydroxypropylcellulose) (HPC)): 6 of 6
- survivor count (dose: 100.0 mg/kg/injection, schedule: Q01DX009 (ip), vehicle: Klucel (hydroxypropylcellulose) (HPC)): 6 of 6
- survivor count [9]: 6 of 6

Compound: CCCCCCCCCCCCCCCC[N+]1(CC)CCCC1
- survivor count (dose: 0.78 mg/kg/injection, schedule: Q01DX009 (ip), vehicle: saline): 1 of 6
- survivor count [10]: 0 of 6
- survivor count [11]: 4 of 6
- survivor count [12]: 2 of 6
- survivor count [13]: 0 of 6
- survivor count (dose: 50.0 mg/kg/injection, schedule: Q01DX009 (ip), vehicle: saline): 0 of 6
- survivor count [14]: 0 of 6
- survivor count [3]: 0 of 6

Compound: Cc1ccc2nc(NC(=S)NCCCCCCNC(=S)Nc3ccc4cc(C)ccc4n3)ccc2c1
- survivor count [9]: 6 of 6

Compound: c1ccc(-c2ccccc2C2=NC2)c(C2=NC2)c1
- survivor count (dose: 200.0 mg/kg/injection, schedule: Q04DX002 (ip), vehicle: saline with Tween-80): 5 of 6
- survivor count (dose: 400.0 mg/kg/injection, schedule: Q04DX002 (ip), vehicle: saline with Tween-80): 0 of 6

Compound: Cc1ccc(N=Nc2c(-c3ccccc3)nn(C(=S)S)c2C)cc1
- survivor count (dose: 100.0 mg/kg/injection, schedule: Q04DX002 (ip), vehicle: Klucel (hydroxypropylcellulose) (HPC)): 5 of 5

Compound: Fc1cccc2c(C#Cc3ccccc3)c3ccccc3c(C#Cc3ccccc3)c12
- survivor count [15]: 5 of 5
- survivor count [6]: 5 of 5 (2×)

Compound: CCN(CC)CCNc1ccc(COC(C)=O)c2sc3ccccc3c(=O)c12
- T/C [15]: 129 % of control
- T/C (dose: 25.0 mg/kg/injection, schedule: Q01DX005 (ip), vehicle: saline with Tween-80): 125 and 145 % of control
- survivor count [6]: 5 of 6

Compound: COc1ccc2c(N)c3cccc[n+]3cc2c1OC
- T/C [16]: 130 % of control
- survivor count [16]: 6 of 6
- survivor count (dose: 100.0 mg/kg/injection, schedule: Q04DX003 (ip), vehicle: water): 0 of 6 and 2 of 6
- survivor count (dose: 200.0 mg/kg/injection, schedule: Q04DX003 (ip), vehicle: water): 0 of 6
- survivor count (dose: 400.0 mg/kg/injection, schedule: Q04DX003 (ip), vehicle: water): 0 of 6

Compound: c1ccc(CN2CCOC2)cc1
- T/C [14]: 133 % of control

Compound: O=C1C(F)=C(N2CC2)C(=O)C(F)=C1N1CC1
- T/C [10]: 136 % of control
- T/C [11]: 130 % of control
- T/C [12]: 141 % of control [5 of 6 alive]
- survivor count [13]: 4 of 6
- survivor count (dose: 25.0 mg/kg/injection, schedule: Q01DX009 (ip), vehicle: saline): 0 of 6
